The list does not hold the whole screen: it is rich in T/C values a quarter to a half above the control, in often repeated tests (any T/C) and in doses without a T/C. Other doses and runs of a compound stand elsewhere. T/C: endpoint of the treated group in % of that of the vehicle group. Some doses have a count of surviving animals in place of a T/C: the source holds a T/C of zero for them, seemingly a mark for toxic or unscored doses. Some survivor counts are full or nearly so, which does not show that the dose was tolerated: the source hardly ever lists a survival T/C far under the control, and the zero likely stands for such cases as well. Survivors were counted at the toxicity check, usually on the fifth day, unless a day is given; later deaths do not show. Schedule codes are those of the source, read here as Q, the interval in days (D) or hours (H), X, the number of doses. Some entries were tested several times; the results are listed from low to high. For survival time, the PubChem record calls one and a half times the control and up active, and a quarter to a half above the control has no call in these data; cut-offs in other NCI protocols can differ. Some T/C values are followed by the survivors on the day toxicity was checked, most often the fifth; where none is given, no animal had died by that day.
System: P388 leukemia ip, CD2F1 mice, survival T/C
Assay: NCI In Vivo Anticancer Drug Screen. Data for tumor model P388 Leukemia (intraperitoneal) in CD2F1 (CDF1) mice
Conditions: T/C endpoint: median survival time, higher T/C = longer survival
[1] = dose: 200.0 mg/kg/injection, schedule: Q01DX005 (ip), vehicle: saline with Tween-80
[2] = dose: 400.0 mg/kg/injection, schedule: Q04DX003 (ip), vehicle: saline with Tween-80
[3] = dose: 100.0 mg/kg/injection, schedule: Q01DX005 (ip), vehicle: saline with Tween-80
[4] = dose: 120.0 mg/kg/injection, schedule: Q01DX005 (ip), vehicle: saline with Tween-80
[5] = dose: 240.0 mg/kg/injection, schedule: Q01DX005 (ip), vehicle: saline with Tween-80
[6] = dose: 100.0 mg/kg/injection, schedule: Q01DX009 (ip), vehicle: saline
[7] = dose: 100.0 mg/kg/injection, schedule: Q01DX009 (ip), vehicle: saline sonified
[8] = dose: 200.0 mg/kg/injection, schedule: Q01DX009 (ip), vehicle: Klucel (hydroxypropylcellulose) (HPC)
[9] = dose: 200.0 mg/kg/injection, schedule: Q01DX009 (ip), vehicle: saline
[10] = dose: 50.0 mg/kg/injection, schedule: Q01DX005 (ip), vehicle: saline with Tween-80

COc1cc(N=Nc2ccccc2)cc(/C=N\NC(=S)Nc2ccc(C)cc2)c1O
survivor count [1]: 0 of 6

Cc1cc(C)cc(C(C)(C)C)c1
survivor count [2]: 4 of 6

Cc1cc(N/N=C/c2ccc(N(CCCl)CCCl)cc2)c2cc3c(cc2n1)OCO3
survivor count (dose: 100.0 mg/kg/injection, schedule: Q04DX003 (ip), vehicle: saline with Tween-80): 4 of 5 and 6 of 6 | survivor count (dose: 200.0 mg/kg/injection, schedule: Q04DX003 (ip), vehicle: saline with Tween-80): 3 of 6 | survivor count [2]: 0 of 5

CN(Cc1ccco1)NC(=O)C(=O)NCc1ccco1
survivor count [3]: 5 of 5

C(=N\NC1=NCCN1)/c1ccc(-c2cn3cc(/C=N/NC4=NCCN4)ccc3n2)cc1
T/C [4]: 130 % of control [5 of 6 alive] | survivor count [5]: 1 of 6

CCCCCc1ccccc1
survivor count (dose: 400.0 mg/kg/injection, schedule: Q01DX009 (ip), vehicle: saline with Tween-80): 3 of 6

C/C(=C\C(=O)c1ccccc1)Nc1ccccc1Cl
survivor count [6]: 6 of 6

CCOC(=O)c1[nH]cnc1/N=N/N(C)CCO
T/C [7]: 131 % of control | T/C (dose: 200.0 mg/kg/injection, schedule: Q01DX009 (ip), vehicle: saline sonified): 136 % of control | T/C (dose: 400.0 mg/kg/injection, schedule: Q01DX009 (ip), vehicle: saline sonified): 140 % of control

CN(Cc1cnc2nc(N)nc(N)c2n1)c1ccc(C(=O)NC(CCC(=O)O)C(=O)O)cc1Br (centres undefined)
survivor count (dose: 5.0 mg/kg/injection, schedule: Q01DX009 (ip), vehicle: saline sonified): 5 of 6 | survivor count (dose: 10.0 mg/kg/injection, schedule: Q01DX009 (ip), vehicle: saline sonified): 5 of 6 | T/C (dose: 15.0 mg/kg/injection, schedule: Q04DX003 (ip), vehicle: saline with Tween-80): 129 % of control | survivor count (dose: 20.0 mg/kg/injection, schedule: Q01DX009 (ip), vehicle: saline sonified): 5 of 6 | T/C (dose: 20.0 mg/kg/injection, schedule: Q04DX003 (ip), vehicle: saline with Tween-80): 135 % of control

CCOc1cc2c(cc1C(C)(C)c1ccc(OC)cc1)OCO2
T/C [5]: 125 % of control | T/C (dose: 480.0 mg/kg/injection, schedule: Q01DX005 (ip), vehicle: saline with Tween-80): 135 % of control

CONC(=O)N/N=C/c1c(CO)cnc(C)c1O
survivor count (dose: 50.0 mg/kg/injection, schedule: Q01DX005 (ip), vehicle: Klucel (hydroxypropylcellulose) (HPC)): 0 of 6 | survivor count (dose: 100.0 mg/kg/injection, schedule: Q01DX005 (ip), vehicle: Klucel (hydroxypropylcellulose) (HPC)): 0 of 6 | survivor count (dose: 200.0 mg/kg/injection, schedule: Q01DX005 (ip), vehicle: Klucel (hydroxypropylcellulose) (HPC)): 0 of 6

Cc1ccc(S(=O)(=O)N2CCCN(S(=O)(=O)c3ccc(C)cc3)CCSCCCSCC2)cc1
survivor count (dose: 100.0 mg/kg/injection, schedule: Q01DX009 (ip), vehicle: saline with Tween-80): 6 of 6 | survivor count (dose: 200.0 mg/kg/injection, schedule: Q01DX009 (ip), vehicle: saline with Tween-80): 6 of 6

CC(N)(CCS(=O)CP(=O)(O)O)C(=O)O (centres undefined)
survivor count (dose: 240.0 mg/kg/injection, schedule: Q01DX005 (ip), vehicle: saline): 5 of 6

O=C1C(C=Nc2ccc(S(=O)(=O)Nc3nccs3)cc2)C(=O)N(c2ccccc2)N1c1ccccc1
survivor count (dose: 50.0 mg/kg/injection, schedule: Q01DX009 (ip), vehicle: Klucel (hydroxypropylcellulose) (HPC)): 6 of 6 | survivor count (dose: 100.0 mg/kg/injection, schedule: Q01DX009 (ip), vehicle: Klucel (hydroxypropylcellulose) (HPC)): 6 of 6 | survivor count [8]: 6 of 6

O=C(O)/C(Cl)=C(\Cl)C(=O)Nc1cccc([N+](=O)[O-])c1
survivor count [5]: 2 of 6

COc1ccc(Oc2cc3c(cc2OC)CCN(C)C3)cc1
survivor count [6]: 2 of 6 | survivor count [9]: 0 of 6

CCSc1nc2ccc(N=Cc3ccccc3O)cc2s1
survivor count [8]: 5 of 6

CCCC(=O)Oc1c(OC)cc(O)c2c(=O)c(O)c(-c3ccc(OC)cc3)oc12
survivor count (dose: 28.0 mg/kg/injection, schedule: Q01DX005 (ip), vehicle: Klucel (hydroxypropylcellulose) (HPC)): 6 of 6

CCN(CC)OC(=O)/C=C/c1ccccc1
survivor count [4]: 6 of 6 | survivor count [5]: 5 of 6

O=C1OC(=O)[C@H]2[C@@H]1[C@H]1C=C[C@@H]2OC1=O
T/C [6]: 135 % of control

CN(C)C1C(=O)C(C(N)=O)=C(O)C2(O)C(=O)C3=C(O)c4c(O)cccc4C(C)(O)C3CC12.[Cl][Sb]([Cl])[Cl] (centres undefined)
survivor count [1]: 0 of 6

CS1(=O)=NC(=N)c2ccccc21 (centres undefined)
survivor count [9]: 3 of 6

C/C(=C\[P+](c1ccccc1)(c1ccccc1)c1ccccc1)N1CC1
survivor count (dose: 25.0 mg/kg/injection, schedule: Q01DX001 (ip), vehicle: saline with Tween-80): 2 of 6 | survivor count (dose: 50.0 mg/kg/injection, schedule: Q01DX001 (ip), vehicle: saline with Tween-80): 0 of 6 | survivor count (dose: 100.0 mg/kg/injection, schedule: Q01DX001 (ip), vehicle: saline with Tween-80): 0 of 6 | survivor count (dose: 200.0 mg/kg/injection, schedule: Q01DX001 (ip), vehicle: saline with Tween-80): 0 of 6 | survivor count (dose: 400.0 mg/kg/injection, schedule: Q01DX001 (ip), vehicle: saline with Tween-80): 0 of 6

c1ccc2c(NCCCCCNc3c4ccccc4nc4ccccc34)c3ccccc3nc2c1
T/C (dose: 7.5 mg/kg/injection, schedule: Q01DX009 (ip), vehicle: other): 126 % of control | survivor count (dose: 15.0 mg/kg/injection, schedule: Q01DX009 (ip), vehicle: other): 3 of 6 | survivor count (dose: 20.0 mg/kg/injection, schedule: Q01DX009 (ip), vehicle: other): 1 of 6

Nc1nc(/C=C\c2ccccc2)cc(-c2cc(/C=C\c3ccccc3)nc(N)n2)n1
survivor count (dose: 120.0 mg/kg/injection, schedule: Q01DX005 (ip), vehicle: Klucel (hydroxypropylcellulose) (HPC)): 6 of 6

O=C1CN(c2cccc(C(F)(F)F)c2)C(=O)CN1/N=C/c1ccc(O)c(O)c1
survivor count [10]: 6 of 6 | survivor count [3]: 6 of 6 | survivor count [1]: 6 of 6

N=C(N)c1ccc2oc(/C=C/C=C/c3cc4cc(C(=N)N)ccc4o3)cc2c1
T/C (dose: 100.0 mg/kg/injection, schedule: Q04DX003 (ip), vehicle: suspension in saline): 125 % of control | T/C (dose: 200.0 mg/kg/injection, schedule: Q04DX003 (ip), vehicle: suspension in saline): 129 % of control | T/C (dose: 600.0 mg/kg/injection, schedule: Q04DX003 (ip), vehicle: suspension in saline): 134 % of control

CCc1ccc(C(=O)N/N=C(\C)[C@]2(O)Cc3c(O)c4c(c(O)c3[C@@H](OC3CC(N)C(O)C(C)O3)C2)C(=O)c2c(OC)cccc2C4=O)cc1 (some centres undefined)
T/C (dose: 0.25 mg/kg/injection, schedule: Q01DX009 (ip), vehicle: water, evaluated on day 30): 139 % of control | T/C (dose: 0.25 mg/kg/injection, schedule: Q01DX009 (ip), vehicle: water, evaluated on day 45): 133 % of control | T/C (dose: 0.5 mg/kg/injection, schedule: Q01DX009 (ip), vehicle: water, evaluated on day 30): 148 % of control | T/C (dose: 0.5 mg/kg/injection, schedule: Q01DX009 (ip), vehicle: water, evaluated on day 45): 137 % of control | survivor count (dose: 16.0 mg/kg/injection, schedule: Q01DX009 (ip), vehicle: water): 5 of 6 and 6 of 6

NNC(=O)c1cnn(-c2ccccc2)c1N
survivor count [4]: 0 of 6 | survivor count [5]: 0 of 6

C/C(=N\NC(=S)N1CCN(c2ccccc2)CC1)c1cnccn1
survivor count (dose: 25.0 mg/kg/injection, schedule: Q01DX005 (ip), vehicle: saline with Tween-80): 6 of 6 | survivor count [10]: 6 of 6 | survivor count [3]: 1 of 6 | survivor count [1]: 0 of 6

CC(C)(CCC(=O)O)C(=O)O
survivor count [7]: 6 of 6

CC(C)SCNc1ncnc2c1ncn2C1OC(CO)C(O)C1O (centres undefined)
survivor count (dose: 200.0 mg/kg/injection, schedule: Q04DX002 (ip), vehicle: saline with Tween-80): 0 of 6 | survivor count (dose: 400.0 mg/kg/injection, schedule: Q04DX002 (ip), vehicle: saline with Tween-80): 0 of 6

CC(=O)OC1CSS(=O)CC1OC(C)=O (centres undefined)
survivor count (dose: 400.0 mg/kg/injection, schedule: Q04DX002 (ip), vehicle: saline): 4 of 6
